{
  "sequences": {"note": "The chains behind the UniProt entries cited, without tags or fusion partners. Where a name states a change or a piece, a line headed by the entry shows the natural chain unless it says otherwise.", "UniProt P02452": "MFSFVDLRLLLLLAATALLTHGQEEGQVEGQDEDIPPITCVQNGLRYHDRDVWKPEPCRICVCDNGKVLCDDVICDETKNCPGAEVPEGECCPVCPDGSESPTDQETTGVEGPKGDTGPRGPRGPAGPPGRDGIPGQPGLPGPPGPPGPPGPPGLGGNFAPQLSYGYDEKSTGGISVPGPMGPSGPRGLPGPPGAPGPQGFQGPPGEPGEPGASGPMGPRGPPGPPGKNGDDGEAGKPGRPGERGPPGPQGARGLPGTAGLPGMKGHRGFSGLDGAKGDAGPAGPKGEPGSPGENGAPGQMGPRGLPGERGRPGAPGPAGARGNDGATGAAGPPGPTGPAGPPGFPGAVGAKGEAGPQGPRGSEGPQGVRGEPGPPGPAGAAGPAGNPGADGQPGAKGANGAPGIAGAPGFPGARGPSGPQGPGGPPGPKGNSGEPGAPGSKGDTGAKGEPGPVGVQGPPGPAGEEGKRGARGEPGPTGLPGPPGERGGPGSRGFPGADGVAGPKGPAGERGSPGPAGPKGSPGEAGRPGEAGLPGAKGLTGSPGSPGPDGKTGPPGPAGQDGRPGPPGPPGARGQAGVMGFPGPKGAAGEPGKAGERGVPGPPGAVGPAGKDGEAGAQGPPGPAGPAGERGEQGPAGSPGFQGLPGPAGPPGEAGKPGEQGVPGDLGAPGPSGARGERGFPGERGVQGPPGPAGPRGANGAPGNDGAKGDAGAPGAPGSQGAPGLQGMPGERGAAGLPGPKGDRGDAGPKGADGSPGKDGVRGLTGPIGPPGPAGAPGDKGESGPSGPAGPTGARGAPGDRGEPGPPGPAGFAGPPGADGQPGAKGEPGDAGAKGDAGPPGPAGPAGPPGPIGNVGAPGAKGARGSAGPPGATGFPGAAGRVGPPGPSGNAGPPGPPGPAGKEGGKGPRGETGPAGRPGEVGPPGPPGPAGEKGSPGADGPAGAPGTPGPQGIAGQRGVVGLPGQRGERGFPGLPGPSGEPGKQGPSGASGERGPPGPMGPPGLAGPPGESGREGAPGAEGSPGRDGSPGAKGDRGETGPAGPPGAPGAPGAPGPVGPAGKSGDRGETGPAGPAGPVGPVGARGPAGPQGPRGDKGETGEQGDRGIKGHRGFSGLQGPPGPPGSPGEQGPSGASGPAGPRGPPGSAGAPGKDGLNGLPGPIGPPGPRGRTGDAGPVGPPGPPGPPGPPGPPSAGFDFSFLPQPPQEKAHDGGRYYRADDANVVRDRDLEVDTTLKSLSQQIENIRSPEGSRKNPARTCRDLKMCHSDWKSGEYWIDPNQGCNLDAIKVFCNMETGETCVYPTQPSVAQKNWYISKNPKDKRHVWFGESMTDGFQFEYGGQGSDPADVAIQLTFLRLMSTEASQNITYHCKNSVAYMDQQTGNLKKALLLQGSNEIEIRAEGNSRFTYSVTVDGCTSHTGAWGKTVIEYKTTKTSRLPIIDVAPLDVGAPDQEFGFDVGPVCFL", "UniProt P08123": "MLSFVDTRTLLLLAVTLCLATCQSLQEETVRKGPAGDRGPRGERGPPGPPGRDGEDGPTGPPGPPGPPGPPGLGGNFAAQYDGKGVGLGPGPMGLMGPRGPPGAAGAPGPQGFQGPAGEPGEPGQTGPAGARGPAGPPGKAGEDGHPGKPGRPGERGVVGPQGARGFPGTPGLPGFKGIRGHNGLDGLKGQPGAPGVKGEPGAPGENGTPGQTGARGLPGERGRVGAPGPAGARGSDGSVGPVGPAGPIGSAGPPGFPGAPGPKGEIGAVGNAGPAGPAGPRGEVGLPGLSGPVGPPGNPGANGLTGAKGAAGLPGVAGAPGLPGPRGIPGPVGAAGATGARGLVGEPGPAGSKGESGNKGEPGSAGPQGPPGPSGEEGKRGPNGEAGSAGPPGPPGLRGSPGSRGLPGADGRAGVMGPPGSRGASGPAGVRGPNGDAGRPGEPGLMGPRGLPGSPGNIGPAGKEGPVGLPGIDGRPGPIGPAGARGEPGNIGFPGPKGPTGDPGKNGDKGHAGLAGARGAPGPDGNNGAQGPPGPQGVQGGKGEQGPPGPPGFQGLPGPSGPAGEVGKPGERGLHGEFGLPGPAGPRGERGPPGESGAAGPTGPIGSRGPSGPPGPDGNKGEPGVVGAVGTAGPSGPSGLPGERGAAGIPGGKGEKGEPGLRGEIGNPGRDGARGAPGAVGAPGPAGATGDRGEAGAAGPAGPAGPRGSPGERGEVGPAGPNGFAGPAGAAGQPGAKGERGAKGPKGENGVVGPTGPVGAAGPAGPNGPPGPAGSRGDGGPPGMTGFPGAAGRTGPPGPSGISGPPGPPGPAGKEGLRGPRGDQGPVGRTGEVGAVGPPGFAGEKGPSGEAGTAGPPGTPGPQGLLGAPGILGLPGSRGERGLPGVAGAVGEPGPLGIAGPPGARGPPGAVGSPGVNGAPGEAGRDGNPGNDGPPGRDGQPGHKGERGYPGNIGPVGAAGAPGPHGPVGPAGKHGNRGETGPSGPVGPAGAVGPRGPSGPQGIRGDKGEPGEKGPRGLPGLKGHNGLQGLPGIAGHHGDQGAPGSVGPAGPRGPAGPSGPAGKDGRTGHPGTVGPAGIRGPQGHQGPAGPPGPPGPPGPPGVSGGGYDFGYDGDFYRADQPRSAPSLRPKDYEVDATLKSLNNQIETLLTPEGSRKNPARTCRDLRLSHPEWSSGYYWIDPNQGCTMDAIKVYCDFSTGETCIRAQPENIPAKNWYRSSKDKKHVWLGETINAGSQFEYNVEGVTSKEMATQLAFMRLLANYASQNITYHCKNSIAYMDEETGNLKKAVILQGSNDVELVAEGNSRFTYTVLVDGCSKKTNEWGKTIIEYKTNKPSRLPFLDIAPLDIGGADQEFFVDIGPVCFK"},
  "source": "patent USRE49477",
  "about": "(THOMAS JEFFERSON UNIVERSITY, dated 2023)",
  "binders": {"B1": {"name": "original anti-α2Ct mouse IgA antibody (antibody, V domains shown)", "VH": "QIQLVQSGPELKKPGETVKISCKASGYTFTDYPLHWVKQAPGKGLQWMAWINTETGEPTYADDFTGRFAFSLETSASTAYLQINNLKNEDTATYFCVRGYYYYWGQGTTLSVSS", "VL": "DIVMSQSPSSLAVSAGEKVTMSCKSSQSLLNSRTRKNNLAWYQQKPGQSPKLLIYWASTRESGVPDRFTGSGSGTDFTLTISSVQAEDLAVYYCKQSYNLWTFGGGTKLEIKR"}, "B2": {"name": "bacterial-derived scFv variant (anti-α2Ct single chain antibody, FLAG-tagged) (scFv)", "scFv": "MDIVMSQSPSSLAVSAGEKVTMSCKSSQSLLNSRTRKNNLAWYQQKPGQSPKLLIYWASTRESGVPDRFTGSGSGTDFTLTISSVQAEDLAVYYCKQSYNLWTFGGGTKLEIKVDGGGGSGGGGSGGGGSLEQIQLVQSGPELKKPGETVKISCKASGYTFTDYPLHWVKQAPGKGLQWMAWINTETGEPTYADDFTGRFAFSLETSASTAYLQINNLKNEDTATYFCVRGYYYYWGQGTTLSVSSDYKDDDDK"}, "B3": {"name": "mouse-human chimeric IgG consisting of the mVH-hγ and mVL-hκ chains (antibody, V domains shown)", "VH": "QIQLVQSGPELKKPGETVKISCKASGYTFTDYPLHWVKQAPGKGLQWMAWINTETGEPTYADDFTGRFAFSLETSASTAYLQINNLKNEDTATYFCVRGYYYYWGQGTTLSVSS", "VL": "DIVMSQSPSSLAVSAGEKVTMSCKSSQSLLNSRTRKNNLAWYQQKPGQSPKLLIYWASTRESGVPDRFTGSGSGTDFTLTISSVQAEDLAVYYCKQSYNLWTFGGGTKLEIKR", "notes": "The constant regions are human IgG1 γ (pFUSE-CHIg-hG1) and human κ (pFUSE2-CLIg-hk); The antibody was expressed in CHO cells and purified on Protein-L; also called chimeric antibody; CHO-IgG"}},
  "molecular_target": "purified human procollagen I (human) (UniProt P02452+P08123)",
  "experiment": "SensiQ Pioneer biosensor, procollagen I immobilized",
  "note": "These are yes or no findings as the source states them, for the method shown. Some binding calls cover weakened binding; strength is not graded here. Sequences can lack the tags named with a protein.",
  "data": [
    {"binder": "B1", "values": [
      {"measurement": "binding", "value": "binds"}
    ]},
    {"binder": "B2", "values": [
      {"measurement": "binding", "value": "binds"}
    ]},
    {"binder": "B3", "values": [
      {"measurement": "binding", "value": "binds"}
    ]}
  ]
}
